Our source for the z-score values is PubChem BioAssay AID1347423 (Functional Genomics Laboratory (NCATS/FGL), 2020).

Hit rate of the full screen: of about 52,000 sequences, about 210 (0.4%) were called active.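 How the source made its calls: active means gene whose silencing raises cell survival under the drug, median off-target-corrected z-score across its silencing RNAs 2 or more; inactive means the rest.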 Some of the results follow.

This test can be described thus: Resistance to Poly (ADP-Ribose) Polymerase inhibitor: Gene Identification via Genome-wide siRNA Screen. The following applies: mouse BRCA2 R2336H ES cells, olaparib, CellTiter-Glo viability; hits give high values. The essentials: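 Mouse BRCA2 R2336H ES cells were reverse-transfected with siRNA (20 nM final), treated at 48 h with 500 nM olaparib, and read by CellTiter-Glo after 72 h. Scores: MAD-based z per siRNA, median per gene, seed off-target correction.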
As for GGUCGUGCGAUCCACAGAUTT against Ltap, the z-score is inactive: 0.191. The figure for GCGACACAGUAUGCUUAAGTT against Zfp403 is inactive: -0.417; for GGUGCAUGACCUGACAAAGTT against BC032204 it is inactive: 1.28; for CGGACUAAGUUUCAAAUCGTT against Pcdha2 it is inactive: -0.594. The figure for AGAGGCUGGUAAGAAAAAATT against Olfr130 is inactive: 0.318; for GGACUUGCUUUGGACACAUTT against Cd164l1 it is inactive: -0.611. With “CCAAUCAUGGACUUUAUAATT against 4921522K05Rik”, the z-score is inactive: -1.01.

Regarding CCAAUGUGGUCAAGGUAAUTT against AI987944, the z-score was inactive: 1.6. Consider GGUGGGAUGAUCAUAAGUUTT against Ppnr, for which the z-score is inactive: -0.289. The figure for GCAGCAGGAAGGAUCAUUCTT against Ly6h is inactive: -0.805; for “GGUCAAGCAGCUGACCCAATT against A930017N06Rik” it is inactive: 0.622. Turning to GCGUGUGAGUGUGAAGGAATT against Gpr81, the z-score is inactive: -1.53. The figure for CCUCUUUCGACAAGAGCUCTT against Atp1a3 is inactive: -0.132.

Regarding GGAUCUCAAAGAUACAGGATT against Mcpt1, the z-score is inactive: 1.22. For “GGCAAGAGAUCAUAAACUGTT against C230078M08Rik”, the z-score is inactive: -1.91. Take CGACAUCAGUUAAAAACGATT against Aebp2: the z-score is inactive: 0.5.

Turning to GCACAUAUAAAGUUGGAAATT against Ehbp1, the z-score was inactive: -0.377. In the case of “CGUGGAAGCUGUGUUAUCUTT against 2010004A03Rik”, the z-score is inactive: 0.726. As to “GCAAGAUCCGUACAUAGCATT against 8430408H12Rik”, the z-score is inactive: 2.75. With GGGAUAUCGUUUGGUAUAGTT against Saa4, the z-score is inactive: -2.57. The figure for GCUAAGCUAGAACAUGAAUTT against Mapre1 is inactive: 2.23; for GGAACUGCCCAGUUCUUAATT against Ppan it is inactive: -1.52. On to GCUCGUUGUCUAGUUUGGGTT against Ube4b, for which the z-score was inactive: 0.186. Regarding “GGUGCUCAUUUUAUUGAGATT against A530016O06Rik”, the z-score was inactive: 1.07.

With CCCUAAGUAUAGGAUCGGATT against H2afy, the z-score was inactive: 3.21. As for GCAGAUUGGCGAUACCCUGTT against Alcam, the z-score was inactive: -1.32. As to GCUCCACUUUGGAGUUGGATT against Trub2, the z-score was inactive: -2.13. Take GGGCCAAUAAAGAGGACAGTT against Aanat: the z-score is inactive: -1.54.

Take “GGUUCAAUAUGAAGUUGUUTT against 1700012F17Rik”: the z-score is inactive: -1.52.

Regarding CCGUGAGAGUUUGGUGGUATT against Mcm2, the z-score is inactive: -2.3.

With GCCUGAAUUUGUAAGCAGUTT against Fgf1, the z-score is inactive: 0.159. In the case of “GCAAGAUUGGAAUGCUCCATT against 3830403N18Rik”, the z-score was inactive: -2.35. “GCAUGCAAUGUUUUUCGUATT against 4932701A20Rik”: the z-score was inactive: 0.624. Consider GGGCAAGUUUCAUGGAAAUTT against Stat4, for which the z-score was inactive: 0.749. With GGAAUAAGUCGGGCUAUCUTT against Dffb, the z-score was inactive: -0.744.

In the case of GGAAUUCGGUUUCAGCUUCTT against Hs1bp1, the z-score was inactive: 0.845. Regarding GGAUCAGUUGAUCUCAGUGTT against Olfr1406, the z-score was inactive: -1.86.

In the case of GGUACAUUGAGAACAACAGTT against Axin2, the z-score was inactive: -0.0125. As for GGGUCUCUUCAGUUUUUUATT against Sfrs9, the z-score was inactive: -1.01. Turning to CCGGUAUUGUGAGCAAAUUTT against MGC67168, the z-score is inactive: 0.578. With GGAAGCACUCAGUGCUCUGTT against Igfbp6, the z-score was inactive: 0.255. With “GGUGGAAUUUUUGAAGUUUTT against 8030499H02Rik”, the z-score was inactive: 0.0409.

Take “CGAGAAACAGAGUAUCAAGTT against D530033C11Rik”: the z-score was inactive: -0.218. On to “GGAAUCCUUUUGGAUAACATT against 6330411N01Rik”, for which the z-score was inactive: 0.662.

GGUGCCAUUCAUCUUUCAATT against Tmprss3: the z-score was inactive: -1.41.

Consider GGCAGGCAAUUCAAACAAUTT against Orm1, for which the z-score was inactive: 0.924. For “GGUAUAAAGCAACUUACUATT against 5430435G22Rik”, the z-score was inactive: -0.922. Turning to “GGGAAUCUUUAUCAGUGAGTT against 3830422K02Rik”, the z-score is inactive: -1.79. With GGCUUCUUCCUCGUCUUUGTT against Obrgrp, the z-score is inactive: -0.522. With CCUGUUCAAAAGGUAUACATT against Fignl1, the z-score is inactive: -0.469. Regarding GGGCAAAGAACUGAACGAATT against Pfdn2, the z-score was inactive: -1.6. In the case of GCUCAAAUCGUACAAGUGUTT against Panx1 it was inactive: 0.158; in that of GGCGGAAACUGAUCAGCUUTT against Fosb, inactive: 0.843; in that of GUACUUUCUUGAACCAGAGTT against Cacng7, inactive: 0.633. As to GGGUUUCCUGCCUGCUCAUTT against Litaf, the z-score was inactive: -0.281. Consider GGCAUUAAACACUUGCCAGTT against Fshr, for which the z-score is inactive: 2.19. In the case of CCAACAAAAAGAUUACAACTT against Akap7 it was inactive: 0.217; in that of “GGUACUAGGCCUGAUCUUGTT against 1110007C05Rik”, inactive: -1.62; in that of “GCAACAUCCAGGCUUGCCUTT against 1110004B13Rik”, inactive: -0.0857.

Turning to GCAAACUCCAGCUCAACGATT against Galnt4, the z-score is inactive: 0.331.

Consider GGCUCUAACAUGACAAUUUTT against Hyal1, for which the z-score was inactive: 0.0996. In the case of GCAUGUUCCAUGGAUUUUATT against Slfn10, the z-score is inactive: 0.748. As for “GGUCCUACAAAAAGAUGGATT against 0610006F02Rik”, the z-score is inactive: -0.71. Take GGUGGUUCACUGUAAGCCGTT against Spry4: the z-score is inactive: -1.46. The figure for “GCAAGUUUGGAGACAAUGATT against 4930547C10Rik” is inactive: 0.749. On to GGUCCUAAAGCCUUUUCUATT against Mrpl10, for which the z-score is inactive: 0.618. Regarding GGGUUGAACCAUUGUUAAATT against Cyld, the z-score was inactive: 0.745.

In the case of “GGUAUGGGUGAGAGCAACUTT against 2310003L22Rik”, the z-score was inactive: -1.07. On to GGGCUGACUGCUCACUUAATT against Pnp, for which the z-score is inactive: -1.27. The figure for GGAAUCUAUCUCUACUGUATT against Hp1bp3 is inactive: 0.788. For “GCCGAAGAGGACAUCAUUGTT against D830032G16Rik”, the z-score was inactive: 1.24.

CGGCCUUUAUGAAAAGUUATT against Rraga: the z-score is inactive: 0.188. GGCAAGAUUUAGAGAAGCATT against Dnahc8: the z-score is inactive: -1.07. As to UUCUAUGCCAUAUCCAUCATT against Olfr645, the z-score is inactive: 0.947. Regarding GGAGUCAAAAGAAAAGAAGTT against Galm, the z-score was inactive: 0.223. With GGAAAACUUAUACUCAGAATT against V1rd20, the z-score was inactive: -0.0883.

As for “GCGCAAUGAACGGUUCUACTT against D030028O16Rik”, the z-score was inactive: -1.11. Turning to GGACCUGAACACAGCUACUTT against Stoml1, the z-score is inactive: 0.517.

As for “GGCCAUCUCUUUUAUUGUATT against 4833435D08Rik”, the z-score was inactive: -0.00425. As for “GCAGGUUUAUGAAAGCUUUTT against 4921505C17Rik”, the z-score is inactive: -1.31. In the case of GGAAGUUACUGUUGAGUAGTT against Olfr114 it was inactive: -1.66; in that of “GGCACAAAUAUUCUGUACUTT against 9330182L06Rik”, inactive: 1.15; in that of CCACAUGAACAAUUUGGGCTT against Rpl9, inactive: -2.58. In the case of GCUUAGGAAUGGCGACAACTT against V1rh17 it was inactive: 0.566; in that of GGAGCAUACAUCUAAGAUUTT against Zfp185, inactive: 2.17; in that of CGGUAAUCAUUGCUGUUCUTT against H2-K1, inactive: -1.28. On to GGUGCAACCAGUGUGUGAUTT against Siat7f, for which the z-score is inactive: -2.44. Regarding GCUCUGUUCACACGUUUAATT against Arhgap10, the z-score is inactive: -1.12. In the case of GGAGAUACCUGUCAAACAATT against Npm2, the z-score is inactive: 0.848. As for GGAUCAUGGGCGAAUGAUGTT against Rae1, the z-score is inactive: -0.951. Regarding GGUUCAUCUUUCAAAUCUATT against Kpna4, the z-score was inactive: -1.35. Turning to GGAAUCCUUUGUCAAAGGATT against Myh2, the z-score was inactive: 1.04. The figure for CUCUAAGCAGCCGAACACUTT against Scx is inactive: -0.461; for “GGGCUACAAACAUGGAACGTT against 6330580J24Rik” it is inactive: 1.58. As for “GCUUCUGACUUGUGAUGUGTT against 8430411H09Rik”, the z-score is inactive: -0.177.

For GCGAUAUGCCCUAACUGGATT against Mmp24, the z-score was inactive: -0.749. In the case of GGUGCAAAGGCUCAAACAGTT against Rasd1, the z-score is inactive: 0.758. For the sequence “GCACUGGAAAUUGUAUAAATT against 4932701A20Rik”, the z-score was inactive: 0.0923. Consider GGAAUUGUCUAACAGGCUGTT against Hoxd12, for which the z-score is inactive: 0.815. For the sequence GGAUUACAAUCAGGAGGUGTT against Icsbp1, the z-score is inactive: -1.27. For GGAGUUAAACCACUCAAGATT against Ceacam11, the z-score was inactive: 0.808.

Turning to GGCAUUCCUCUUGAAUAUUTT against Dck, the z-score is inactive: -1.2. Turning to CGGUAUUUCGGCAUAAUAATT against Chek1, the z-score was inactive: -1.99.
